The assay addresses Human epidermal growth factor receptor 2 (HER2) (human (endogenous in HCT116)) (UniProt P04626). In words: co-IP; endogenous proteins in HCT116; cells with or without RC48; RIPA whole cell lysate (1 mg) with antibody overnight at 4 °C, protein A/G beads 4 h, five washes in lysis buffer, Western blot. (In western blotting, separated proteins are transferred to a membrane and probed.)

By UniProt entry, the sequences of proteins in these tests, tags left out.
UniProt Q86WV6: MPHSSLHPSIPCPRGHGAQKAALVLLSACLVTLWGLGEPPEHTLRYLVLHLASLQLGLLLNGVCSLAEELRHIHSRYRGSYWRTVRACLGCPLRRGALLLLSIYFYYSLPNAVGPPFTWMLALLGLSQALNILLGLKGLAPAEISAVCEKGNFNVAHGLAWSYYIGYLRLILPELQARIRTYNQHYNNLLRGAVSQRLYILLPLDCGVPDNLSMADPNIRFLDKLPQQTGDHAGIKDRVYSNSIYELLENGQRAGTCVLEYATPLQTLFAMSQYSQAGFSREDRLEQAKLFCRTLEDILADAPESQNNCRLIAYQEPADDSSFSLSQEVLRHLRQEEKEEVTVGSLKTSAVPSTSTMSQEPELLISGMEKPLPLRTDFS

These are yes or no findings as the source states them, for the method shown. In cells and extracts the contact can be indirect. Some binding calls cover weakened binding; strength is not graded here.

Take “STING (stimulator of interferon genes) (from UniProt Q86WV6 1-379)”: the binding result is given as “binds”.
